In US20240181094A1, “[161Tb]-BASED RADIOPEPTIDES” (priority 2021, published 2024):
Not every detail of the peptide structures is certain; ends, links or a residue may be inferred. Starred links: 1 amine or outer side, 2 acyl side, 3 side chain; linkers in the order of their positions; H or OH if unused. Positions of bridges follow the written chain, without caps; N, C: chain ends. Non-standard residues stand in square brackets, D forms with d. Residues, ends and D or L forms follow the SMILES beside them. *: point of attachment. DOTA = O=C(O)CN1CCN(CC(=O)O)CCN(CC(=O)*)CCN(CC(=O)O)CC1; dPhe(4-NHCONH2) = NC(=O)Nc1ccc(C[C@@H](N)C(=O)O)cc1; X1 = NC(=O)Nc1ccc(CC(N[*:1])C(=O)[*:2])cc1; Phe(4-Cl) = N[CH](Cc1ccc(Cl)cc1)C(=O)O

Test system: AR42 J tumor-bearing mice
Test: Preclinical therapy study in AR42 J tumor-bearing mice
Assay type: in vivo

SMILES | mice that survived until the end of the study (mouse, in vivo) | mice that survived until the end of the study (2 x 10 MBq, 0.2 nmol, n=6, 49 days)
CC(O)C1NC(=O)C(CCCCN)NC(=O)C(Cc2ccc(NC(N)=O)cc2)NC(=O)C(Cc2ccc(O)cc2)NC(=O)C(NC(=O)C(Cc2ccc(Cl)cc2)NC(=O)CN2CCN(CC(=O)O)CCN(CC(=O)O)CCN(CC(=O)O)CC2)CSSCC(C(=O)NC(Cc2ccc(O)cc2)C(N)=O)NC1=O (centres unmarked) [metal not drawn] ({DOTA}-[Phe(4-Cl)]CY[X1]KTCY-NH2; disulfide 2-7; configuration not given here) | All mice | 
C[C@@H](O)[C@@H]1NC(=O)[C@H](CCCCN)NC(=O)[C@@H](Cc2ccc(NC(N)=O)cc2)NC(=O)[C@H](Cc2ccc(O)cc2)NC(=O)[C@H](NC(=O)[C@H](Cc2ccc(Cl)cc2)NC(=O)CN2CCN(CC(=O)O)CCN(CC(=O)O)CCN(CC(=O)O)CC2)CSSC[C@@H](C(=O)N[C@H](Cc2ccc(O)cc2)C(N)=O)NC1=O [metal not drawn] ({DOTA}-[Phe(4-Cl)][dC]Y[dPhe(4-NHCONH2)]KTC[dY]-NH2; disulfide 2-7) |  | three out of six mice
